This passage reports NP40-soluble protein abundance results from the supplement of paper PMC6411743.

Common to all, as to assay: NP40-soluble protein abundance relative to vehicle (solubility fold change) (ratio); higher = more soluble protein in presence of AMP-PNP
Assay [1] addresses T1, B7WPL9 and related entries (UniProt Q6PFW1).
T1 sequence (whole entry): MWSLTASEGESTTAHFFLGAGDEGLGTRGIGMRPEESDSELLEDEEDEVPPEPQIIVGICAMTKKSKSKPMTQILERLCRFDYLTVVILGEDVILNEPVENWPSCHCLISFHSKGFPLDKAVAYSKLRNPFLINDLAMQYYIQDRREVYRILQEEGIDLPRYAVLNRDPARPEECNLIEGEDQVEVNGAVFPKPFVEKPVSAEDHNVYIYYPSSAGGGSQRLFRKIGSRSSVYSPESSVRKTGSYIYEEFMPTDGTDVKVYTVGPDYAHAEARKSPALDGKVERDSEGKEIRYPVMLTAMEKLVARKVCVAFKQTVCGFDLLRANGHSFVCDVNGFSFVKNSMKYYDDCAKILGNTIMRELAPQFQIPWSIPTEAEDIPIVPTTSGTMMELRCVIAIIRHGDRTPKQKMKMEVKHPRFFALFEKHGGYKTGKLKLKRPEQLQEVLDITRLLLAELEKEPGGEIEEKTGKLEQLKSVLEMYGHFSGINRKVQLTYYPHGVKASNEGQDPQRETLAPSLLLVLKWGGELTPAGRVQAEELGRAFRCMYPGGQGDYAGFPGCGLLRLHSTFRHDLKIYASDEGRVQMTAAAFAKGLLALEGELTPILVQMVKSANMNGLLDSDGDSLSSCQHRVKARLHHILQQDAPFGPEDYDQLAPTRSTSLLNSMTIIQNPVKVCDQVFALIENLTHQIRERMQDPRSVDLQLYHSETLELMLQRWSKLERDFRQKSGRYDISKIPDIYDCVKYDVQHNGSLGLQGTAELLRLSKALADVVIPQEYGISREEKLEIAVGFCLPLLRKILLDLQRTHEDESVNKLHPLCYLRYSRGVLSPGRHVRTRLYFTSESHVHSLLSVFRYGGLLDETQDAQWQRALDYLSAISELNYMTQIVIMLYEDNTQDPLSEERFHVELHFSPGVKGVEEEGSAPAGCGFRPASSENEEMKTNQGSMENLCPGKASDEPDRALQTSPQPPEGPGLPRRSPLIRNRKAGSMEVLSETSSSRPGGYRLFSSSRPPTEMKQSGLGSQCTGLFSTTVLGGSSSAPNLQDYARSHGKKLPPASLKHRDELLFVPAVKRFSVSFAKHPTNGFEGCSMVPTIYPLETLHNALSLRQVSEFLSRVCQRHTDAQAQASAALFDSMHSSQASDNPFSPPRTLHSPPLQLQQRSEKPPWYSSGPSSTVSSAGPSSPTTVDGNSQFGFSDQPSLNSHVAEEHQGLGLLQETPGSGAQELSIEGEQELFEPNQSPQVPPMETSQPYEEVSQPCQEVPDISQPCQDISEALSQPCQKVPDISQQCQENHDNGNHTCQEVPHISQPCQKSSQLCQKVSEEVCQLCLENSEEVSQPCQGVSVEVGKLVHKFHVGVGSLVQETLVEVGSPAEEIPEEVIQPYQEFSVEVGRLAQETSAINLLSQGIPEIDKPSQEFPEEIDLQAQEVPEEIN
In a few lines: (§1)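 Each value is a fold change relative to the detergent-processed vehicle, calculated per replicate from vsn-normalised intensities. Jurkat crude lysate received eight concentrations (0.1 to 10 mM) for 10 min at room temperature and 3 min at 37 °C, then was solubilised in 0.8% NP40 with benzonase (60 min, 4 °C). The ultracentrifuged supernatant was TMT-labelled and run by LC-MS/MS in three independent experiments.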

The target in assay [2] is T2, C9J494 and related entries (UniProt Q9H000).
T2 sequence (whole entry): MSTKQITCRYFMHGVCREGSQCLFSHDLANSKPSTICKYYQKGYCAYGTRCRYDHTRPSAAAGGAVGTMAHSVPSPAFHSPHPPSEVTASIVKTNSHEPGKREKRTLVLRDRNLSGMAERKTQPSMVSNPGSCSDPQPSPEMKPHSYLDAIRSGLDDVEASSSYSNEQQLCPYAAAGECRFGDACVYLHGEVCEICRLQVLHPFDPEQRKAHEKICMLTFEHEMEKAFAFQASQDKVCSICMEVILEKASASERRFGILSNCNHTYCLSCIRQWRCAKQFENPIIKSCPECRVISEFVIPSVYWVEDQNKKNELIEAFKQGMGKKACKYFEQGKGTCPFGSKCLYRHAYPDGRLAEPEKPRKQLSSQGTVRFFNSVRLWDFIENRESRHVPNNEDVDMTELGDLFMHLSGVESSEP
A digest of the protocol:
as §1

For assay [3], the target named is T3, C9JA69 and related entries (UniProt Q8WY36).
T3 sequence (whole entry): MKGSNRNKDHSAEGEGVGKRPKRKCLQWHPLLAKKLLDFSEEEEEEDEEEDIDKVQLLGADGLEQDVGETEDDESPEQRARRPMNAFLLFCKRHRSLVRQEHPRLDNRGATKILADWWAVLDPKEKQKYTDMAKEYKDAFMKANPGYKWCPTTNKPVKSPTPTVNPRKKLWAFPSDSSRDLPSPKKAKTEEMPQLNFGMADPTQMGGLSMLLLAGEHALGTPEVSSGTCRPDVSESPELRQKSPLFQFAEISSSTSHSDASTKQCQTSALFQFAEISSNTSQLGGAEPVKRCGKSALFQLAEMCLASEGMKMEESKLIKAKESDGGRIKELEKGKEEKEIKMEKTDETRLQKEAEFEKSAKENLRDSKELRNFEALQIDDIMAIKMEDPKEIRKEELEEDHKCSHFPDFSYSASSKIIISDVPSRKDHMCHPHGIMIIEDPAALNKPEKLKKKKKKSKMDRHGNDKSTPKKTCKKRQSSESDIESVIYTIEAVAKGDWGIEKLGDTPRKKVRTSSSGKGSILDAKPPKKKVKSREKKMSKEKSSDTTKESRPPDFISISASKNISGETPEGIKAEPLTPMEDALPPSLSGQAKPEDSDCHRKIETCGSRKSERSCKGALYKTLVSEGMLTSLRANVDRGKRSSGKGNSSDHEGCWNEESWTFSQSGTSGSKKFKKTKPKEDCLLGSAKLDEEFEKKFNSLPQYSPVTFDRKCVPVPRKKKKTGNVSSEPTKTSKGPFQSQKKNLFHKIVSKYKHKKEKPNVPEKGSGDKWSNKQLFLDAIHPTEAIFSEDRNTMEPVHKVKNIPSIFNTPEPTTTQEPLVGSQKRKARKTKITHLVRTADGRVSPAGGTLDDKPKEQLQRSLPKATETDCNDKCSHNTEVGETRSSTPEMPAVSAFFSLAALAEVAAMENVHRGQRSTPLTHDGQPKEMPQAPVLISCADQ
In a few lines: as §1

Assay [4] concerns the target T4, C9JAX1 and related entries (UniProt Q16595).
T4 sequence (whole entry): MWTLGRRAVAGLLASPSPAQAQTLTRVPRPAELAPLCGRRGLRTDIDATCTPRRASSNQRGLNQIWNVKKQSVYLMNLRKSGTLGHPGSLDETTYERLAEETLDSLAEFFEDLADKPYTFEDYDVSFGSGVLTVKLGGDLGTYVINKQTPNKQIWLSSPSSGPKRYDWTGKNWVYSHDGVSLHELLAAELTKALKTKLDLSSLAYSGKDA
In a few lines:
as §1

For assay [5], the target named is T5, C9JI46 and related entries (UniProt Q8N3X6).
T5 sequence (whole entry): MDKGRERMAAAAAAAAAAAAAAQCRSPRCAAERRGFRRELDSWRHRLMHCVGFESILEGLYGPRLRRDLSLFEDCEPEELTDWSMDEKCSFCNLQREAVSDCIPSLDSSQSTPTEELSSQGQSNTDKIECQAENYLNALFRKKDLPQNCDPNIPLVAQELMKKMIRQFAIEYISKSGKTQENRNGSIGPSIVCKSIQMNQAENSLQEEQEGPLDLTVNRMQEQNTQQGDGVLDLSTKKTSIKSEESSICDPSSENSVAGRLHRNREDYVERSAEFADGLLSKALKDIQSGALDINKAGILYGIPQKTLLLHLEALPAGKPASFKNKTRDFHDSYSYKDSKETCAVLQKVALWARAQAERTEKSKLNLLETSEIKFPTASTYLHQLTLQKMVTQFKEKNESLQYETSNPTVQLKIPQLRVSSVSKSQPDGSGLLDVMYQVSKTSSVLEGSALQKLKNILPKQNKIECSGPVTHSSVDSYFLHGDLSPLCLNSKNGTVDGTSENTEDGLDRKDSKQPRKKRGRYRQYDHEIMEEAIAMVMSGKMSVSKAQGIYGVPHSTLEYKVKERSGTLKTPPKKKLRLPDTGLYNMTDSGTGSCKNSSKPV
The note with it: concentration: 1mM. A digest of the protocol:
as §1

The structures appear in SMILES notation. ± gives the standard deviation of the averaged measurements. Only a part is listed here, and it is no random draw.

Turning to `Nc1ncnc2c1ncn2[C@@H]1O[C@H](COP(=O)(O)OP(=O)(O)NP(=O)(O)O)[C@@H](O)[C@H]1O` [adenylyl imidodiphosphate], the NP40-soluble protein abundance in assay [1] (concentration: 6mM) stood at 0.997 ± 0.046; in assay [1] (concentration: 8mM), 0.982 ± 0.02; in assay [1] (concentration: 10mM) it was 1.01 ± 0.041; in assay [2] (concentration: 1mM), 1.01 ± 0.03; in assay [2] (concentration: 2mM), 1.02 ± 0.026; in assay [2] (concentration: 4mM) it was 1.04 ± 0.017. The NP40-soluble protein abundance in assay [2] (concentration: 6mM) was 1.03 ± 0.037; in assay [2] (concentration: 8mM) it was 1.05 ± 0.011; in assay [2] (concentration: 10mM) it was 1.051 ± 0.0097; in assay [3] (concentration: 1mM) it was 1.03 ± 0.046; in assay [3] (concentration: 2mM) it was 1.06 ± 0.02; in assay [3] (concentration: 4mM), 1 ± 0.018. The NP40-soluble protein abundance in assay [3] (concentration: 6mM) was 1.02 ± 0.013; in assay [3] (concentration: 8mM), 0.993 ± 0.039; in assay [3] (concentration: 10mM) it was 1.03 ± 0.044; in assay [4] (concentration: 1mM), 0.937 ± 0.044; in assay [4] (concentration: 2mM) it was 1.06 ± 0.079; in assay [4] (concentration: 4mM), 0.9515 ± 0.0091. Also, the NP40-soluble protein abundance in assay [4] (concentration: 6mM) was determined as 0.995 ± 0.06; in assay [4] (concentration: 8mM) it was 0.989 ± 0.05; in assay [4] (concentration: 10mM) it was 0.963 ± 0.03; in assay [5], 0.985 ± 0.021.
